Assay [1] concerns the target Nucleoporin Nup58 (human (endogenous in HeLa)) (UniProt Q9BVL2). Description: co-IP; interphase HeLa cell extracts precipitated with anti-Nup58 (control: nonspecific rabbit IgG); SDS-PAGE and immunoblotting. (In general: In western blotting, separated proteins are transferred to a membrane and probed.)
For assay [2] the target is unchanged. Put plainly: co-IP; mitotic HeLa cell extracts precipitated with anti-Nup58 (control: nonspecific rabbit IgG), protein A/G beads, 1 h at 4 °C; lysis and wash buffer 50 mM Tris-HCl pH 7.2, 250 mM NaCl, 0.1% Nonidet P-40, 2 mM EDTA, 10% glycerol; immunoblotting.

By UniProt entry, the sequences of proteins in these tests, tags left out.
UniProt Q9BVL2: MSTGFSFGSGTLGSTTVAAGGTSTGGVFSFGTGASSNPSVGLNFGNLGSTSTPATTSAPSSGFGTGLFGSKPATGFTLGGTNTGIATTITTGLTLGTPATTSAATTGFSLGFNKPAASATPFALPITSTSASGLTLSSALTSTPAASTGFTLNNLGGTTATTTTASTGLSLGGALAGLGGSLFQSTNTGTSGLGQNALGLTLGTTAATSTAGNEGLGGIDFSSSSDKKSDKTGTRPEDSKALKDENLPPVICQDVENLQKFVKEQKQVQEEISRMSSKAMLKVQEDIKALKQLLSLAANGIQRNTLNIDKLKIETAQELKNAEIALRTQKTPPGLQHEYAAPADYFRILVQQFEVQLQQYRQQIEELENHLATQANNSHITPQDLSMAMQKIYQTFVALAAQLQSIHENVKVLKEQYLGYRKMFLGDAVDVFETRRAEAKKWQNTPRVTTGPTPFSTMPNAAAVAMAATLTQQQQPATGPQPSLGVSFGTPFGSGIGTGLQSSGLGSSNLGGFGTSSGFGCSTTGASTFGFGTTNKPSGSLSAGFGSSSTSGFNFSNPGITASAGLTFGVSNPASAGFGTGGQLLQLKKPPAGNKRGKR
UniProt Q8N4C6: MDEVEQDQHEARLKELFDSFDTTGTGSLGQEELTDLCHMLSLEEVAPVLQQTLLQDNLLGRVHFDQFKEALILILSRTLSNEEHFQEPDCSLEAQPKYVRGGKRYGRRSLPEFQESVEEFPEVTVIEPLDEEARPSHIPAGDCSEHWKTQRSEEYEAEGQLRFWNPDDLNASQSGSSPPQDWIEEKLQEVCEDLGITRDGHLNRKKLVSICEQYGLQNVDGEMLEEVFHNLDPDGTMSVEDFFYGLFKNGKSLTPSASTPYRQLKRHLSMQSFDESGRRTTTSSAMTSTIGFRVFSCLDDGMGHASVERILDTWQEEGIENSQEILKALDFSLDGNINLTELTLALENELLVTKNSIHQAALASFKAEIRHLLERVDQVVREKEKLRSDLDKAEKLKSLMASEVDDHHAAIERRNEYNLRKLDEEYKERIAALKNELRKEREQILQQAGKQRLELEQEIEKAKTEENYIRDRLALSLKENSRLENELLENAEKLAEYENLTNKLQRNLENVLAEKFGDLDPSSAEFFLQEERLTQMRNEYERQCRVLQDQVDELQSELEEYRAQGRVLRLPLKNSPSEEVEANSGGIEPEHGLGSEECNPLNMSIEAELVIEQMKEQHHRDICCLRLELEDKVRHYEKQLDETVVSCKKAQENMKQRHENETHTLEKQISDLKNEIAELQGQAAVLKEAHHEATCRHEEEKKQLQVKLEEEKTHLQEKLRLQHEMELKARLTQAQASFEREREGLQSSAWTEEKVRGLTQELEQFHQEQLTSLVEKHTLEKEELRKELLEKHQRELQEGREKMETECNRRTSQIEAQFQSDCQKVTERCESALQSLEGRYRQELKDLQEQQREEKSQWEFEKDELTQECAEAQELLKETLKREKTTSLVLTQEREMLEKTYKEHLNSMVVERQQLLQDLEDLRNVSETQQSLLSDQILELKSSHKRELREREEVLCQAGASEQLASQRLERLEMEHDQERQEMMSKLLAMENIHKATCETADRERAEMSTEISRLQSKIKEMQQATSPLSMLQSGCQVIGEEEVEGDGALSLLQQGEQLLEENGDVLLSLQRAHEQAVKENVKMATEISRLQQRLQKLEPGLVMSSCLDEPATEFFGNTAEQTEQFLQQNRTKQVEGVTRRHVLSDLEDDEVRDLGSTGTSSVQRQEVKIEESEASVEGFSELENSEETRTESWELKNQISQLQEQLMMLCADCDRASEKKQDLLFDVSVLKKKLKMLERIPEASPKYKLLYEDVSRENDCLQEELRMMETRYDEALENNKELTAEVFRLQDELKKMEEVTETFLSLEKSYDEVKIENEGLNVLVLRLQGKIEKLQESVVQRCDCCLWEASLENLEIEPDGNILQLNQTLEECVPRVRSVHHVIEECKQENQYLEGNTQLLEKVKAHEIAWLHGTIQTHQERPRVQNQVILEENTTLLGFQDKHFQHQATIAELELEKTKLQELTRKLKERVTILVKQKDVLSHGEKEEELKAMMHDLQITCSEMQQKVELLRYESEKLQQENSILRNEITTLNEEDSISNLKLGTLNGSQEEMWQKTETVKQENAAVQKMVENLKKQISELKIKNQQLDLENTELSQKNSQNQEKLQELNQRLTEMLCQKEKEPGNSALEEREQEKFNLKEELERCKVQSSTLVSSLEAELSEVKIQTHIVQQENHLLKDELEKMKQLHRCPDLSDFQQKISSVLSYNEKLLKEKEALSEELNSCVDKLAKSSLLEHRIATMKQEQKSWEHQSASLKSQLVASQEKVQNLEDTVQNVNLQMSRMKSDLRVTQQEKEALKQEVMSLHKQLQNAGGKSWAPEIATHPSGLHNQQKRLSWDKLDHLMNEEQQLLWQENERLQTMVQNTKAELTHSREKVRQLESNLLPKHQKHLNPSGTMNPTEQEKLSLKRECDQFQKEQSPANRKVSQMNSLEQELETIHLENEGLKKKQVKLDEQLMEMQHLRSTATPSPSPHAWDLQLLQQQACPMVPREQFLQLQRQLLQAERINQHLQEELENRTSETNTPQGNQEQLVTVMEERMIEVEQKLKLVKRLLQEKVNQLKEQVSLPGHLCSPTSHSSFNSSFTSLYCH

Experimental findings from PMC6679547 are described below.

No constants are given. Whether binding was seen depends on the method and setting. Binding seen in cells or lysates may run through a third protein. Some results given as binding are weak or reduced against the parent protein; the word gives no strength.

Regarding ninein (from UniProt Q8N4C6 1-2090), the binding result in assay [1] and in assay [2] was “no binding” throughout.

B1: SAS-6 (protein, UniProt Q6UVJ0 1-657)
chain: MSQVLFHQLVPLQVKCKDCEERRVSIRMSIELQSVSNPVHRKDLVIRLTDDTDPFFLYNLVISEEDFQSLKFQQGLLVDFLAFPQKFIDLLQQCTQEHAKEIPRFLLQLVSPAAILDNSPAFLNVVETNPFKHLTHLSLKLLPGNDVEIKKFLAGCLKCSKEEKLSLMQSLDDATKQLDFTRKTLAEKKQELDKLRNEWASHTAALTNKHSQELTNEKEKALQAQVQYQQQHEQQKKDLEILHQQNIHQLQNRLSELEAANKDLTERKYKGDSTIRELKAKLSGVEEELQRTKQEVLSLRRENSTLDVECHEKEKHVNQLQTKVAVLEQEIKDKDQLVLRTKEAFDTIQEQKVVLEENGEKNQVQLGKLEATIKSLSAELLKANEIIKKLQGDLKTLMGKLKLKNTVTIQQEKLLAEKEEKLQKEQKELQDVGQSLRIKEQEVCKLQEQLEATVKKLEESKQLLKNNEKLITWLNKELNENQLVRKQDVLGPSTTPPAHSSSNTIRSGISPNLNVVDGRLTYPTCGIGYPVSSAFAFQNTFPHSISAKNTSHPGSGTKVQFNLQFTKPNASLGDVQSGATISMPCSTDKENGENVGLESKYLKKREDSIPLRGLSQNLFSNSDHQRDGTLGALHTSSKPTALPSASSAYFPGQLPNS
In the case of B1, the binding entry in assay [1] is reported as “no binding (condition: interphase HeLa cell extracts)”; in assay [2] it was “binds”.
